# Results as given in the supplement of paper PMC8728848.
# The list shows a part of the results.
# How the values were obtained:
# Assay in all cases: glycan array binding signal (z-score within array); higher = stronger binding
# Details in all cases: glycan notation: IUPAC condensed, linker removed
# [1] = biological target: Fuc(a1-2)Gal(b1-4)GlcNAc(b1-3)Gal(b1-4)GlcNAc(b1-3)Gal(b1-4)GlcNAc
# How it was run: (§1)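 Glycan array data came from 3228 arrays in the Consortium for Functional Glycomics database, and only arrays with an available protein sequence were kept. Glycan names were put into IUPAC-condensed notation, and columns mapping to the same glycan were averaged. The binding signal is a within-array Z-score, averaged across arrays of one protein sequence run at different concentrations or buffers and across linkers. A negative Z-score can be read as non-binding.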
# [2] = biological target: Fuc(a1-2)Gal(b1-4)GlcNAc(b1-3)GalNAc
# How it was run: as §1
# [3] = biological target: Fuc(a1-2)Gal(b1-4)GlcNAc(b1-3)[Fuc(a1-2)Gal(b1-4)GlcNAc(b1-6)]GalNAc
# How it was run: as §1
# [4] = biological target: Fuc(a1-2)Gal(b1-4)GlcNAc(b1-3)[Fuc(a1-3)[Gal(b1-4)]GlcNAc(b1-6)]Gal(b1-4)Glc
# How it was run: as §1
# [5] = biological target: Fuc(a1-2)Gal(b1-4)GlcNAc(b1-6)GalNAc
# How it was run: as §1
# [6] = biological target: Fuc(a1-2)Gal(b1-4)GlcNAc6S
# How it was run: as §1
# [7] = biological target: Fuc(a1-2)Gal(b1-4)[Fuc(a1-3)]GlcNAc
# How it was run: as §1
# [8] = biological target: Fuc(a1-2)Gal(b1-4)[Fuc(a1-3)]GlcNAc(b1-2)Man(a1-3)[Fuc(a1-2)Gal(b1-4)[Fuc(a1-3)]GlcNAc(b1-2)Man(a1-6)]Man(b1-4)GlcNAc(b1-4)[Fuc(a1-6)]GlcNAc
# How it was run: as §1
# [9] = biological target: Fuc(a1-2)Gal(b1-4)[Fuc(a1-3)]GlcNAc(b1-2)[Fuc(a1-2)Gal(b1-4)[Fuc(a1-3)]GlcNAc(b1-4)]Man(a1-3)[Fuc(a1-2)Gal(b1-4)[Fuc(a1-3)]GlcNAc(b1-2)Man(a1-6)]Man(b1-4)GlcNAc(b1-4)GlcNAc
# How it was run: as §1
# [10] = biological target: Fuc(a1-2)Gal(b1-4)[Fuc(a1-3)]GlcNAc(b1-3)Gal(b1-4)[Fuc(a1-3)]GlcNAc
# How it was run: as §1
# [11] = biological target: Fuc(a1-2)Gal(b1-4)[Fuc(a1-3)]GlcNAc(b1-3)Gal(b1-4)[Fuc(a1-3)]GlcNAc(b1-3)Gal(b1-4)[Fuc(a1-3)]GlcNAc
# How it was run: as §1
# [12] = biological target: Fuc(a1-2)Gal(b1-4)[Fuc(a1-3)]GlcNAc(b1-3)GalNAc
# How it was run: as §1
# [13] = biological target: Fuc(a1-2)Gal(b1-4)[Fuc(a1-3)]GlcNAc(b1-3)[Neu5Ac(a2-6)Gal(b1-4)GlcNAc(b1-6)]Gal(b1-4)Glc
# How it was run: as §1
# [14] = biological target: Fuc(a1-2)Gal3S(b1-4)GlcNAc
# How it was run: as §1
# [15] = biological target: Fuc(a1-2)Gal6S(b1-3)GlcNAc
# How it was run: as §1
# [16] = biological target: Fuc(a1-2)Gal6S(b1-3)GlcNAc6S
# How it was run: as §1
# [17] = biological target: Fuc(a1-2)Gal6S(b1-4)Glc
# How it was run: as §1
# [18] = biological target: Fuc(a1-2)Gal6S(b1-4)Glc6S
# How it was run: as §1
# [19] = biological target: Fuc(a1-2)[Gal(a1-3)]Gal
# How it was run: as §1
# [20] = biological target: Fuc(a1-2)[Gal(a1-3)]Gal(b1-3)GalNAc
# How it was run: as §1
# [21] = biological target: Fuc(a1-2)[Gal(a1-3)]Gal(b1-3)GalNAc(b1-3)Gal(a1-4)Gal(b1-4)Glc
# How it was run: as §1
# [22] = biological target: Fuc(a1-2)[Gal(a1-3)]Gal(b1-3)GlcNAc
# How it was run: as §1
# [23] = biological target: Fuc(a1-2)[Gal(a1-3)]Gal(b1-3)GlcNAc(b1-2)Man(a1-3)[Fuc(a1-2)[Gal(a1-3)]Gal(b1-3)GlcNAc(b1-2)Man(a1-6)]Man(b1-4)GlcNAc(b1-4)GlcNAc
# How it was run: as §1
# [24] = biological target: Fuc(a1-2)[Gal(a1-3)]Gal(b1-3)GlcNAc(b1-2)Man(a1-3)[Fuc(a1-2)[Gal(a1-3)]Gal(b1-3)GlcNAc(b1-2)Man(a1-6)]Man(b1-4)GlcNAc(b1-4)[Fuc(a1-6)]GlcNAc
# How it was run: as §1
# [25] = biological target: Fuc(a1-2)[Gal(a1-3)]Gal(b1-3)GlcNAc(b1-3)GalNAc
# How it was run: as §1
# [26] = biological target: Fuc(a1-2)[Gal(a1-3)]Gal(b1-3)GlcNAc(b1-6)GalNAc
# How it was run: as §1
# [27] = biological target: Fuc(a1-2)[Gal(a1-3)]Gal(b1-4)Glc
# How it was run: as §1
# [28] = biological target: Fuc(a1-2)[Gal(a1-3)]Gal(b1-4)GlcNAc
# How it was run: as §1
# [29] = biological target: Fuc(a1-2)[Gal(a1-3)]Gal(b1-4)GlcNAc(b1-2)Man
# How it was run: as §1
# [30] = biological target: Fuc(a1-2)[Gal(a1-3)]Gal(b1-4)GlcNAc(b1-2)Man(a1-3)[Fuc(a1-2)[Gal(a1-3)]Gal(b1-4)GlcNAc(b1-2)Man(a1-6)]Man(b1-4)GlcNAc(b1-4)GlcNAc
# How it was run: as §1
# [31] = biological target: Fuc(a1-2)[Gal(a1-3)]Gal(b1-4)GlcNAc(b1-2)Man(a1-3)[Fuc(a1-2)[Gal(a1-3)]Gal(b1-4)GlcNAc(b1-2)Man(a1-6)]Man(b1-4)GlcNAc(b1-4)[Fuc(a1-6)]GlcNAc
# How it was run: as §1
# [32] = biological target: Fuc(a1-2)[Gal(a1-3)]Gal(b1-4)GlcNAc(b1-3)GalNAc
# How it was run: as §1
# [33] = biological target: Fuc(a1-2)[Gal(a1-3)]Gal(b1-4)GlcNAc(b1-3)[Fuc(a1-2)[Gal(a1-3)]Gal(b1-4)GlcNAc(b1-6)]GalNAc
# How it was run: as §1
# [34] = biological target: Fuc(a1-2)[Gal(a1-3)]Gal(b1-4)GlcNAc(b1-6)GalNAc
# How it was run: as §1
# [35] = biological target: Fuc(a1-2)[Gal(a1-3)]Gal(b1-4)[Fuc(a1-3)]Glc
# How it was run: as §1
# [36] = biological target: Fuc(a1-2)[Gal(a1-3)]Gal(b1-4)[Fuc(a1-3)]GlcNAc
# How it was run: as §1
# [37] = biological target: Fuc(a1-2)[Gal(a1-3)]Gal(b1-4)[Fuc(a1-3)]GlcNAc(b1-3)GalNAc
# How it was run: as §1
binder,measurement,setting,value
RobpsCRA (Robinia pseudoacacia) (protein) IKGGYWYSGSGLAVSDINPSHFTHLFCAFADLDPNTNKLTISSSNAAAFSTFTQTVRAKNPSVKTLLSIGGGGGRALAAVFANMASQASRRKSFIDSSIQLARRNNFHGLDLDWEYPSSDIDKTNFASLIREWRAAVATESSTSGTPALLLSAAVGGSDQITPLKYYPGEAIANNLDWVNVMTYDLYTSDSYPTLTQPPAPLFYPRGIFSADEGITKWIQSGVPESKLALGLPFYGFKWRLSDPNNHGLFAPATQGLGAVKYKDIVNTGGQVEFDSTYVTNYCFKGTDWYGYDDTQSISAKVAYAKQRGLFGYFAWHIEQDSNWALS,glycan array binding signal (z-score),[1],-0.287
same,glycan array binding signal (z-score),[2],-0.611
same,glycan array binding signal (z-score),[3],-0.359
same,glycan array binding signal (z-score),[4],-0.598
same,glycan array binding signal (z-score),[5],-0.674
same,glycan array binding signal (z-score),[6],0.244
same,glycan array binding signal (z-score),[7],-0.156
same,glycan array binding signal (z-score),[8],-0.099
same,glycan array binding signal (z-score),[9],0.212
same,glycan array binding signal (z-score),[10],-0.131
same,glycan array binding signal (z-score),[11],-0.49
same,glycan array binding signal (z-score),[12],0.708
same,glycan array binding signal (z-score),[13],-0.512
same,glycan array binding signal (z-score),[14],-0.007
same,glycan array binding signal (z-score),[15],-0.314
same,glycan array binding signal (z-score),[16],0.966
same,glycan array binding signal (z-score),[17],-0.627
same,glycan array binding signal (z-score),[18],-0.44
same,glycan array binding signal (z-score),[19],0.41
same,glycan array binding signal (z-score),[20],-0.447
same,glycan array binding signal (z-score),[21],-0.435
same,glycan array binding signal (z-score),[22],-0.443
same,glycan array binding signal (z-score),[23],-0.684
same,glycan array binding signal (z-score),[24],-0.838
same,glycan array binding signal (z-score),[25],-0.064
same,glycan array binding signal (z-score),[26],-0.743
same,glycan array binding signal (z-score),[27],-0.14
same,glycan array binding signal (z-score),[28],-0.581
same,glycan array binding signal (z-score),[29],-0.319
same,glycan array binding signal (z-score),[30],0.466
same,glycan array binding signal (z-score),[31],0.1
same,glycan array binding signal (z-score),[32],-0.615
same,glycan array binding signal (z-score),[33],-0.452
same,glycan array binding signal (z-score),[34],-0.58
same,glycan array binding signal (z-score),[35],-0.131
same,glycan array binding signal (z-score),[36],-0.598
same,glycan array binding signal (z-score),[37],-0.494

# At a glance, some entries already given.
binder,measurement,setting,value
RobpsCRA (Robinia pseudoacacia) (protein) IKGGYWYSGSGLAVSDINPSHFTHLFCAFADLDPNTNKLTISSSNAAAFSTFTQTVRAKNPSVKTLLSIGGGGGRALAAVFANMASQASRRKSFIDSSIQLARRNNFHGLDLDWEYPSSDIDKTNFASLIREWRAAVATESSTSGTPALLLSAAVGGSDQITPLKYYPGEAIANNLDWVNVMTYDLYTSDSYPTLTQPPAPLFYPRGIFSADEGITKWIQSGVPESKLALGLPFYGFKWRLSDPNNHGLFAPATQGLGAVKYKDIVNTGGQVEFDSTYVTNYCFKGTDWYGYDDTQSISAKVAYAKQRGLFGYFAWHIEQDSNWALS,glycan array binding signal (z-score),[22],-0.443
same,glycan array binding signal (z-score),[23],-0.684
